The whole screen tested about 300,000 compounds, of which about 5,400 (1.8%) were called active. The inconclusive results got no clear call from the source; some entries with a clear call stand among them for comparison. The call rests on the fitted dose curve; tested in HEK293 cells. Where the call is inconclusive, the potency comes from a doubtful curve fit.
Experiment: qHTS for inhibitors of binding or entry into cells for Marburg Virus
Conditions: Marburg virus pseudotyped entry inhibition, cell reporter; activity change, negative = inhibition: at 37.8 µM (top of the series) unless noted
On the % scale 0 is the no-effect control and ±100 the full control effect; potency means the concentration at half of the fitted maximal effect.

Question: Which Potency does the source give for `COc1cc(NC(=O)C2C3CCC(O3)C2C(=O)O)cc(OC)c1` (centres undefined) here?
Answer: inconclusive: 35.5 µM [inhibitor, partial curve, poor fit]

Question: With `Cc1ccc(NC(=O)C2(N(C(=O)Cn3nnnc3N)c3ccc(C)cc3)CCCCC2)cc1` as the compound, how does the Potency read?
Answer: inconclusive: 20 µM [inhibitor, partial curve, poor fit]

Question: Which “activity change, negative = inhibition” value does the source give for `CCOc1ccc(-c2csc(-c3nc(-c4ccc(Br)s4)cs3)n2)cc1` here?
Answer: inactive: 2.56% [at 46.1 µM]

Question: Which Potency does the source give for `O=C(N/N=C/C(Cl)=C\c1ccccc1)c1cccs1` here?
Answer: inconclusive: 11.2 µM [inhibitor, partial curve, poor fit]

Question: Which Potency does the source give for `COc1ccc(OC)c(C(=O)/C=C/c2cccnc2)c1` here?
Answer: inconclusive: 14.1 µM [inhibitor, partial curve, poor fit]

Question: For `Cc1onc(-c2ccccc2)c1C(=O)N/N=C/c1cn(C)c2ccccc12`, which “activity change, negative = inhibition” value is on record?
Answer: inactive: -0.675% [at 14.2 µM]

Question: For `Cn1c(=O)c2[nH]c(-c3cccnc3)nc2n(C)c1=O`, which Potency is on record?
Answer: inconclusive: 29.1 µM [inhibitor, single point]

Question: Which Potency does the source give for `CN1CCN(c2ccc(Cl)cc2NC(=O)CC2OC(=O)c3ccccc32)CC1` (centres undefined) here?
Answer: inconclusive: 35.5 µM [inhibitor, single point]

Question: With `CN(CC(=O)N1CCOCC1)S(=O)(=O)c1cc(Cl)ccc1Cl` as the compound, how does the Potency read?
Answer: inconclusive: 0.562 µM [inhibitor, full curve, poor fit]

Question: For `O=C(c1ccc2c(c1)N(Cc1ccccc1F)C(=O)c1ccccc1S2=O)N1CCCCC1` (centres undefined), which “activity change, negative = inhibition” value is on record?
Answer: inactive: 23.5% [at 46.1 µM]

Question: Which Potency does the source give for `COc1ccc(S(=O)(=O)N/N=C\c2ccc(OC)c(COc3ccc(C)cc3[N+](=O)[O-])c2)cc1` here?
Answer: inconclusive: 22.4 µM [inhibitor, single point]

Question: For `COc1ccc(S(=O)(=O)N2CCCCC2)cc1NC(=O)CN(C)C1CCCCC1`, which Potency is on record?
Answer: inconclusive: 7.08 µM [inhibitor, partial curve, poor fit]

Question: Which Potency does the source give for `COc1ccccc1CCNC(=O)c1nc(-c2cccs2)no1` here?
Answer: inconclusive: 0.316 µM [activator, full curve, poor fit]

Question: For `COc1cc(CN2CCN(S(=O)(=O)c3ccc(NC(C)=O)cc3)CC2)cc(OC)c1O`, which “activity change, negative = inhibition” value is on record?
Answer: inactive: -12.7%

Question: For `O=C(Nc1ccc(N2CCCC2)cc1)c1cccc(F)c1`, which Potency is on record?
Answer: inconclusive: 6.51 µM [inhibitor, partial curve, poor fit]

Question: Which Potency does the source give for `Cc1ccc(SCCC(=O)OC(C(=O)NC(N)=O)C(C)C)cc1` (centres undefined) here?
Answer: inconclusive: 22.4 µM [activator, single point]

Question: For `Cc1csc(NC(=O)CSc2nc3ccccc3c(=O)[nH]2)n1`, which Potency is on record?
Answer: active: 4.61 µM

Question: For `COc1ccc(N2CCN(CC(O)COc3ccc(C(C)C)c(C)c3)CC2)cc1` (centres undefined), which Potency is on record?
Answer: inconclusive: 35.5 µM [inhibitor, single point]

Question: For `CC(C)C[C@H](CO)NS(=O)(=O)c1cccc(Cl)c1F`, which Potency is on record?
Answer: inconclusive: 14.1 µM [activator, partial curve, poor fit]

Question: Which Potency does the source give for `Cc1ccc(C)c(N=C2CCCN2Cc2ccccc2)c1C#N` here?
Answer: inconclusive: 29.1 µM [inhibitor, single point]

Question: For `CCN1CCc2c(sc3c2c(NCc2ccco2)nc2nnnn23)C1`, which Potency is on record?
Answer: inconclusive: 6.51 µM [inhibitor, single point]

Question: For `O=C(Nc1ccccc1C(=O)O)c1cncc(Br)c1`, which “activity change, negative = inhibition” value is on record?
Answer: inactive: 13.3%

Question: With `CC(Sc1ccc(Cl)cc1)C(=O)NCc1ccc2c(c1)OCO2` (centres undefined) as the compound, how does the Potency read?
Answer: inconclusive: 5.62 µM [activator, single point]

Question: Which “activity change, negative = inhibition” value does the source give for `O=C(Nc1c(-c2ccccc2)nc2ncccn12)c1cc2ccccc2oc1=O` here?
Answer: inactive: 16.4%

Question: For `CCOc1ccc(NC(=O)c2ccc(NC(=O)COC(=O)Cc3ccccc3)cc2)cc1`, which Potency is on record?
Answer: inconclusive: 1.26 µM [activator, partial curve, poor fit]

Question: Which Potency does the source give for `Cc1ccc(CN2CC(C(=O)Nc3cccc(S(=O)(=O)N4CCCCC4)c3)CC2=O)cc1` (centres undefined) here?
Answer: inconclusive: 6.31 µM [activator, single point]

Question: Which Potency does the source give for `S=C(NCc1ccco1)N1CCN(C(c2ccccc2)c2ccccc2)CC1` here?
Answer: inconclusive: 29.1 µM [inhibitor, single point]

Question: For `CCOc1ccc(NCc2cccn2-c2nnc(N3CCC(C(=O)NCc4ccc(C)cc4)CC3)s2)cc1`, which Potency is on record?
Answer: inconclusive: 2 µM [inhibitor, partial curve, poor fit]

Question: Which Potency does the source give for `COCCCNC(=O)c1cc(S(=O)(=O)NCCCN2CCCC2=O)ccc1Cl` here?
Answer: inconclusive: 12.6 µM [activator, single point]

Question: Which “activity change, negative = inhibition” value does the source give for `Cc1occc1C(=O)Nc1ccccc1C(=O)O` here?
Answer: inactive: 13%

Question: For `Cc1nnc(N2CCN(c3ccccc3F)CC2)c2c1nnn2Cc1ccccc1Cl`, which Potency is on record?
Answer: inconclusive: 12.6 µM [activator, single point]

Question: With `O=C(Cn1ncc(Cl)c(Cl)c1=O)NCC1CCCCC1` as the compound, how does the Potency read?
Answer: inconclusive: 14.1 µM [inhibitor, partial curve, poor fit]

Question: With `O=C(NC1=NCCS1)C1COc2ccccc2O1` (centres undefined) as the compound, how does the Potency read?
Answer: active: 1 µM

Question: With `O=[N+]([O-])c1ccccc1-c1ccc(CN2CCN(c3ccccc3)CC2)o1` as the compound, how does the “activity change, negative = inhibition” value read?
Answer: inactive: 1.73% [at 46.1 µM]

Question: With `O=C(NC(Cc1ccccc1)C(=O)N1CCc2ccccc2C1)c1ccccc1` (centres undefined) as the compound, how does the Potency read?
Answer: inconclusive: 35.5 µM [inhibitor, single point]

Question: For `COc1ccc(N=Nc2nc3cc(Br)c(Br)cc3n2C)c(OC)c1`, which “activity change, negative = inhibition” value is on record?
Answer: inactive: -1.8%

Question: Which Potency does the source give for `O=c1oc(-c2cc3ccccc3o2)nc2sc3c(c12)CCCC3` here?
Answer: inconclusive: 14.6 µM [inhibitor, partial curve, poor fit]

Question: For `NC1=NC(=Nc2ccc(Br)cc2)c2ccccc21`, which Potency is on record?
Answer: active: 7.08 µM

Question: Which Potency does the source give for `C[C@H](NC(=O)Cc1cccc2ccccc12)C(=O)N1CCCN(C)CC1` here?
Answer: inconclusive: 14.1 µM [activator, single point]

Question: With `O=S(=O)(/N=C(/Nc1nc2ccccc2s1)c1ccccc1)c1ccc(F)cc1` as the compound, how does the Potency read?
Answer: inconclusive: 0.891 µM [activator, full curve, poor fit]

Question: With `Cc1cc(Cl)cc(Cl)c1OCCOCCN(C)C` as the compound, how does the Potency read?
Answer: inconclusive: 29.1 µM [inhibitor, single point]

Question: With `CCOC(=O)C1=NNC2(CC(=O)N(c3cc(C)cc(C)c3)C2=O)C1` (centres undefined) as the compound, how does the Potency read?
Answer: inconclusive: 15.8 µM [activator, single point]

Question: For `Cc1occc1C(=O)Nc1cccc(C(F)(F)F)c1`, which “activity change, negative = inhibition” value is on record?
Answer: inactive: -13.3%

Question: For `CCOC(=O)N1CCc2c(sc3c2C(=O)NC(c2ccccc2)N3)C1` (centres undefined), which Potency is on record?
Answer: active: 3.16 µM

Question: For `N#Cc1c(C(F)(F)F)cc(-c2ccc(Cl)c(Cl)c2)nc1SCCN1CCOCC1`, which Potency is on record?
Answer: inconclusive: 6.51 µM [inhibitor, full curve, poor fit]

Question: For `N#CCCCC1(CCCC#N)OCCO1`, which Potency is on record?
Answer: inconclusive: 0.251 µM [activator, full curve, poor fit]

Question: For `CCOCC(=O)Nc1cc(C(F)(F)F)ccc1Oc1cccc(Br)c1`, which Potency is on record?
Answer: inconclusive: 11.2 µM [inhibitor, partial curve, poor fit]

Question: With `O=c1c(-c2cnn(-c3ccccc3)c2)coc2cc(O)ccc12` as the compound, how does the Potency read?
Answer: inconclusive: 6.31 µM [inhibitor, partial curve, poor fit]

Question: With `O/N=C1\CCCc2ccccc21` as the compound, how does the Potency read?
Answer: inconclusive: 1.26 µM [activator, partial curve, poor fit]

Question: Which “activity change, negative = inhibition” value does the source give for `Cc1csc(=Nc2cccnc2)n1Cc1ccco1` here?
Answer: inactive: 22% [at 46.1 µM]

Question: For `O=C(OCc1nnc(-c2ccccc2)o1)c1cccnc1Cl`, which “activity change, negative = inhibition” value is on record?
Answer: inactive: 14.7% [at 46.1 µM]

Question: With `C=CCn1c(SCc2c(Cl)cccc2Cl)nnc1-c1cccnc1` as the compound, how does the Potency read?
Answer: inconclusive: 6.51 µM [inhibitor, single point]

Question: Which “activity change, negative = inhibition” value does the source give for `COCCn1c(SCC(=O)c2c(N)n(C)c(=O)n(C)c2=O)nc2ccccc21` here?
Answer: inactive: -2.79% [at 46.1 µM]

Question: For `CCCCC(=O)Nc1ccc(NC(=O)c2ccco2)cn1`, which Potency is on record?
Answer: inconclusive: 1.26 µM [activator, single point]

Question: Which Potency does the source give for `CC(C)Sc1nc(N2CCOCC2)c2c3c(sc2n1)COC(C)(C)C3` here?
Answer: inconclusive: 20.6 µM [inhibitor, single point]

Question: For `CC1=NN(c2ccccc2)C(=O)C1c1ccccc1` (centres undefined), which Potency is on record?
Answer: inconclusive: 28.2 µM [activator, single point]

Question: Which Potency does the source give for `N#CC1(NC(=O)Cn2ncc(Cl)c(Cl)c2=O)CCCCC1` here?
Answer: inconclusive: 11.2 µM [inhibitor, partial curve, poor fit]

Question: For `O=C(C1CCN(S(=O)(=O)c2ccccc2)CC1)N(CCc1ccccc1)Cc1ccco1`, which Potency is on record?
Answer: inconclusive: 17.8 µM [inhibitor, partial curve, poor fit]

Question: Which Potency does the source give for `Cc1cc(C)cc(NS(=O)(=O)c2ccc(NC(=O)C3CCCCC3C(=O)O)cc2)c1` (centres undefined) here?
Answer: inconclusive: 0.562 µM [inhibitor, full curve, poor fit]

Question: For `CC(C)n1c(COc2ccccc2)nc2ccccc21`, which Potency is on record?
Answer: inconclusive: 8.91 µM [inhibitor, single point]

Question: Which “activity change, negative = inhibition” value does the source give for `O=C(NCc1nnc(SCC(=O)N2CCCCCC2)o1)c1ccc(F)cc1` here?
Answer: inactive: -7.97%

Question: For `N#Cc1nc(-c2cccs2)oc1NCc1ccccc1Cl`, which Potency is on record?
Answer: inconclusive: 35.5 µM [inhibitor, single point]

Question: Which Potency does the source give for `Cc1cccc(C(=O)Nc2ccccc2N2CCN(c3ccc(F)cc3)CC2)c1` here?
Answer: inconclusive: 18.3 µM [inhibitor, partial curve, poor fit]

Question: With `c1ccc(Oc2cccc(OCCn3cncn3)c2)cc1` as the compound, how does the “activity change, negative = inhibition” value read?
Answer: inactive: 4.45%

Question: With `CS(=O)(=O)N1CCN(c2ccc(NC(=O)c3ccc([N+](=O)[O-])o3)cc2)CC1` as the compound, how does the “activity change, negative = inhibition” value read?
Answer: inactive: 4.37%

Question: With `COc1cccc(Nc2ncc(C#N)c(N)n2)c1` as the compound, how does the Potency read?
Answer: inconclusive: 0.631 µM [inhibitor, full curve, poor fit]

Question: For `COc1ccc(NC(=O)Cn2c(=O)n(CCC(=O)NCCc3ccc(OC)c(OC)c3)c(=O)c3ccccc32)cc1Cl`, which “activity change, negative = inhibition” value is on record?
Answer: inactive: -9.39% [at 46.1 µM]

Question: For `CC(=O)N/N=C\c1ccccc1OC/C=C/c1ccccc1`, which Potency is on record?
Answer: inconclusive: 1.26 µM [activator, single point]

Question: For `O=C(NCCc1ccccc1)NC1CCCCC1`, which “activity change, negative = inhibition” value is on record?
Answer: inactive: 12.1%

— PubChem BioAssay AID540276 (National Center for Advancing Translational Sciences (NCATS), 2011)
